PMC4219786, “Glycan Dependence of Galectin-3 Self-Association Properties” (PLoS ONE, 2014)
Results are given in words; binding and its absence hold for the method and conditions named. Some entries that bind do so weakly or less than the wild type.

Amino acid sequences for entries named in this document (tags omitted). Residues count along the entry.
human Galectin-3 N-terminal domain (13-113) (P17931, residues 13-113): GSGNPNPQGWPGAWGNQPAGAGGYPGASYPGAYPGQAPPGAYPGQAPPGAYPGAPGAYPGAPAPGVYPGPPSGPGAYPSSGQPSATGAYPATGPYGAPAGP
human Galectin-3 Carbohydrate Recognition Domain (114-250) (P17931, residues 114-250): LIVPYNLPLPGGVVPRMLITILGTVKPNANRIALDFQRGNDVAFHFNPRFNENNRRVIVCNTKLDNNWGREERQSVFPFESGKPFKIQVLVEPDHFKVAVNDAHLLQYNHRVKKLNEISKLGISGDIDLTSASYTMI

Molecular target: human Galectin-3 Carbohydrate Recognition Domain (114-250) (human) (UniProt P17931)
Assay: NMR chemical shift mapping (1H-15N HSQC spectra compared); spectra of free 15N CRD (40 µM) and free 15N N-terminal domain (30 µM) compared with 15N full length Galectin-3 (30 µM); the two domains on one chain in FL; 5 mM potassium phosphate pH 7.4; both purified

human Galectin-3 N-terminal domain (13-113) (from UniProt P17931 13-113) (domain or fragment)
binding: binds
